Assay results from publication PMC7840974.
These are yes or no findings as the source states them, for the method shown. Binding seen in cells or lysates may run through a third protein. Some binding calls cover weakened binding; strength is not graded here.

Sequences of proteins named here, by UniProt entry; tags and fusion partners are left off.
UniProt P25490: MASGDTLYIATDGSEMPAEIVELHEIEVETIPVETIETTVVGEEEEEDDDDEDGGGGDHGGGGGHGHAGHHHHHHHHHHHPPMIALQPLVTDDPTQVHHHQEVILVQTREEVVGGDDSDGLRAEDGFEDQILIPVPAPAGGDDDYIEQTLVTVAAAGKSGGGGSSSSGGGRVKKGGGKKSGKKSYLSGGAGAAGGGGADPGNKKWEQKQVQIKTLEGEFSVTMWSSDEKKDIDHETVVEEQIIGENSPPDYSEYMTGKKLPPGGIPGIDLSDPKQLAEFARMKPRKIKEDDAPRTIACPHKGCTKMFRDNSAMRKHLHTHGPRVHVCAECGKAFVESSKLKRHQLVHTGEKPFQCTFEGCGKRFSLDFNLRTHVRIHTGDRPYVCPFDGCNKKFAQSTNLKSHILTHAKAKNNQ

Target: T1, HELLS (human (endogenous in TLBR-2 and MAC2A)) (UniProt Q9NRZ9)
T1 sequence: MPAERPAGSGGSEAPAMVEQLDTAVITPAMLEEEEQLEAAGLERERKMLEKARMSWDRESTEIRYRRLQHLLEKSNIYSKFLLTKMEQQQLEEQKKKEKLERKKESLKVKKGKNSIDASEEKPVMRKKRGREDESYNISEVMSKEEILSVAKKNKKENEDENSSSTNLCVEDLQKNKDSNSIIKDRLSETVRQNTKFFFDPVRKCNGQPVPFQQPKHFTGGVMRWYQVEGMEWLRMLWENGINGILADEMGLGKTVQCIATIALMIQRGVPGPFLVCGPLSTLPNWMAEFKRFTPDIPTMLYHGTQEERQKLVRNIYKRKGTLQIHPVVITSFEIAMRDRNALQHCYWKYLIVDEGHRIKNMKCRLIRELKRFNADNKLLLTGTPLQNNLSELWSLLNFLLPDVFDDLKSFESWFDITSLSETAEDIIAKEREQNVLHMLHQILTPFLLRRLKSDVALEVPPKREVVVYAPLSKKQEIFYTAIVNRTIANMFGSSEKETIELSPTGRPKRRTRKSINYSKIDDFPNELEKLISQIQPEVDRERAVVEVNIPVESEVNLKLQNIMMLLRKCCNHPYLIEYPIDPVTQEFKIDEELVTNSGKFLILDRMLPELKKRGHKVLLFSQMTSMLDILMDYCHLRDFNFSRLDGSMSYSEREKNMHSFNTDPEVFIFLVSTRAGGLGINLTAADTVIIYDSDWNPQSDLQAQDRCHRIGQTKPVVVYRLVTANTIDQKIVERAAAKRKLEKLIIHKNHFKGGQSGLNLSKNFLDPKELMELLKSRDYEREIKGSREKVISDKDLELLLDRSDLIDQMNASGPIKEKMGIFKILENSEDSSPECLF
Assay: co-IP; nuclear extracts (4 mg) of TLBR-2 and MAC2A cells crosslinked with 1% formaldehyde; immunoprecipitation with HELLS antibody on Protein A-Sepharose, overnight 4 °C; washes in TBS (50 mM Tris-HCl pH 7.4, 150 mM NaCl); detection by western blot

Yin Yang 1 (YY1) (from UniProt P25490 1-414)
binding: binds
